Publication PMC3024409
Results are given in words; binding and its absence hold for the method and conditions named. Some binding calls cover weakened binding; strength is not graded here. Sequences can lack the tags named with a protein. One block for each binder: values may come before it.

Sequences of proteins named here, by UniProt entry; tags and fusion partners are left off.
UniProt P40160: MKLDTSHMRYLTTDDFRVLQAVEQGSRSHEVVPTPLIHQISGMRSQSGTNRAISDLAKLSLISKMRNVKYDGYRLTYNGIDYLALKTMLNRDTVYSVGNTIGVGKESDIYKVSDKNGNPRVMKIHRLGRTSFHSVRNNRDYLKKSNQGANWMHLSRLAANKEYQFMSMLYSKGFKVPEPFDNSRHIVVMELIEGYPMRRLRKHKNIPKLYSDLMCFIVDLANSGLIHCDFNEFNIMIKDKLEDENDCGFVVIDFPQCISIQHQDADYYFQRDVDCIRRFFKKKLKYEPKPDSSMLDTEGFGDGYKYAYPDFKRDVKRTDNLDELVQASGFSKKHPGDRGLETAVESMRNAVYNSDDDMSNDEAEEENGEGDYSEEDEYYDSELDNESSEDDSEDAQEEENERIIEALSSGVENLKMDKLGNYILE
UniProt P41819: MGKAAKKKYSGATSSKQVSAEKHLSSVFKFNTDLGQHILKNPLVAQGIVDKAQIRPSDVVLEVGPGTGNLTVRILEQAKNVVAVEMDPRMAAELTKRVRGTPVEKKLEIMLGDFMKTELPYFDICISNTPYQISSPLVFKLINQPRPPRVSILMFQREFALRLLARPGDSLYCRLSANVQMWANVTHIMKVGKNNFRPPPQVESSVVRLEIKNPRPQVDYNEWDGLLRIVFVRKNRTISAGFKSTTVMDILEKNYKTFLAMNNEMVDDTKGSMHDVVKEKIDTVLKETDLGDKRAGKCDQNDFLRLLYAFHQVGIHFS

Tests used:
[1] = target: (MBP-)Rio2 (S. cerevisiae) (UniProt P40160); experiment: pull-down; 3 µM MBP-tagged bait and 5 µM untagged prey in 50 mM HEPES pH 7.5, 150 mM KCl; 10 min at room temperature, 1 h at 4°C with amylose resin; washed, eluted with 20 mM maltose; SDS-PAGE, Coomassie; both purified
[2] = target: T1, (MBP-)Tsr1 (S. cerevisiae), Q07381; experiment: condition: 5 µM untagged protein, 3 µM MBP-tagged protein; pull-down; 3 µM MBP-tagged bait and 5 µM untagged prey in 50 mM HEPES pH 7.5, 150 mM KCl; 10 min at room temperature, 1 h at 4°C with amylose resin; washed, eluted with 20 mM maltose; SDS-PAGE, Coomassie; both purified; details: remark: other sources report otherwise
T1 chain: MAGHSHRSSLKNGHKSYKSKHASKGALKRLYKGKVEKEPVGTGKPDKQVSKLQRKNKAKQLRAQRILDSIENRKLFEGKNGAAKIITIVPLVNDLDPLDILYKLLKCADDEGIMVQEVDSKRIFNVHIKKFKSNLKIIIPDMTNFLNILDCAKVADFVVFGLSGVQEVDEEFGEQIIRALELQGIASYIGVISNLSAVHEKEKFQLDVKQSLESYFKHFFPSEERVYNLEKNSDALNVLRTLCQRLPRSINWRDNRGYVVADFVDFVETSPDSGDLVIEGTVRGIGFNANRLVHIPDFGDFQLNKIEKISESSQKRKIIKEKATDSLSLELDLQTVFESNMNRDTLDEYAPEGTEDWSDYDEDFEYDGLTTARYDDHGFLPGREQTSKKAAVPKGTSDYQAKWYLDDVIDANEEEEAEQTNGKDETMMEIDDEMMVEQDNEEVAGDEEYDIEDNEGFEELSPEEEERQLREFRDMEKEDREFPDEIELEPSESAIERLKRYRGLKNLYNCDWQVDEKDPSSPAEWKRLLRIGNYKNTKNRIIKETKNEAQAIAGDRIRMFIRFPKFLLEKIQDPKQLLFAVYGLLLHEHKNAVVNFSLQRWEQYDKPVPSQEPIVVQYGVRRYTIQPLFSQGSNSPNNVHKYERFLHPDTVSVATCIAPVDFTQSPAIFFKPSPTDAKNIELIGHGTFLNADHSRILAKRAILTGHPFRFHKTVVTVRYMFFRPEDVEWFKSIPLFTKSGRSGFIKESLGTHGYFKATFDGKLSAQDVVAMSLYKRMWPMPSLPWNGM

[3] = target: (MBP-)Dim1 (S. cerevisiae) (UniProt P41819); experiment: pull-down; 3 µM MBP-tagged bait and 5 µM untagged prey in 50 mM HEPES pH 7.5, 150 mM KCl; 10 min at room temperature, 1 h at 4°C with amylose resin; washed, eluted with 20 mM maltose; SDS-PAGE, Coomassie; both purified
[4] = target: T2, (MBP-)Nob1 (S. cerevisiae) (UniProt Q08444); experiment: as above
T2 sequence: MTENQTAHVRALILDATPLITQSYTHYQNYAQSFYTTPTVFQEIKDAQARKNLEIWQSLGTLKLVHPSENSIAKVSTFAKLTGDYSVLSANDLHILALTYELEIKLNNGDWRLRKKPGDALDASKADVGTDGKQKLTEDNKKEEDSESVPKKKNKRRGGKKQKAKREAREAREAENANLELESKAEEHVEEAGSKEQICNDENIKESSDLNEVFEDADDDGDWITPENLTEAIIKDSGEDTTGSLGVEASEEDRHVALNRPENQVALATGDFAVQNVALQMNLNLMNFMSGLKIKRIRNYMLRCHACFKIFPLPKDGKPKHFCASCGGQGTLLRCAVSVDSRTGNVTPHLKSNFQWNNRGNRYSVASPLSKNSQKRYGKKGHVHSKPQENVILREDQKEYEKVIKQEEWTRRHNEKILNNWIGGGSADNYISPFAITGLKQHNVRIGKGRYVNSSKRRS

[5] = target: T3, (MBP-)Rps3 (S. cerevisiae), P05750; experiment: condition: 5 µM untagged protein, 3 µM MBP-tagged protein; pull-down; 3 µM MBP-tagged bait and 5 µM untagged prey in 50 mM HEPES pH 7.5, 150 mM KCl; 10 min at room temperature, 1 h at 4°C with amylose resin; washed, eluted with 20 mM maltose; SDS-PAGE, Coomassie; both purified; details: remark: other sources report otherwise
T3 chain: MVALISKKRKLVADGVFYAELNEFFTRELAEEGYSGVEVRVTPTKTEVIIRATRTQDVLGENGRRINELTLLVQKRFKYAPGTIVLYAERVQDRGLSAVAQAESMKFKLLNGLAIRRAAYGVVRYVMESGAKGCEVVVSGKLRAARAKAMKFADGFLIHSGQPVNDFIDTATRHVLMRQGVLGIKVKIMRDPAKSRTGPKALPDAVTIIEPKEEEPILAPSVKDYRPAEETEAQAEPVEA

[6] = target: T3, (MBP-)Rps3 (S. cerevisiae), P05750; experiment: pull-down; (MBP-)Rps3 as bait with untagged Ltv1 and Enp1 together (test for a ternary complex); amylose resin, SDS-PAGE; both purified; details: remark: other sources report otherwise
[7] = target: (MBP-)Dim1 (S. cerevisiae), P41819; experiment: condition: 5 µM untagged protein, 3 µM MBP-tagged protein; pull-down; 3 µM MBP-tagged bait and 5 µM untagged prey in 50 mM HEPES pH 7.5, 150 mM KCl; 10 min at room temperature, 1 h at 4°C with amylose resin; washed, eluted with 20 mM maltose; SDS-PAGE, Coomassie; both purified; details: remark: other sources report otherwise

B3: Ltv1 (untagged) (protein, UniProt P34078 1-463)
chain: MSKKFSSKNSQRYVVVHRPHDDPSFYDTDASAHVLVPVSNPNKTSPEADLRKKDVSSTKPKGRRAHVGEAALYGINFDDSEYDYTQHLKPIGLDPENSIFIASKGNEQKVEKKNIEDLFIEPKYRRDEIEKDDALPVFQRGMAKPEYLLHQQDTTDEIRGFKPDMNPALREVLEALEDEAYVVNDDVVVEDISKKTQLQGDNYGEEEKEDDIFAQLLGSGEAKDEDEFEDEFDEWDIDNVENFEDENYVKEMAQFDNIENLEDLENIDYQADVRRFQKDNSILEKHNSDDEFSNAGLDSVNPSEEEDVLGELPSIQDKSKTGKKKRKSRQKKGAMSDVSGFSMSSSAIARTETMTVLDDQYDQIINGYENYEEELEEDEEQNYQPFDMSAERSDFESMLDDFLDNYELESGGRKLAKKDKEIERLKEAADEVSKGKLSQRRNRERQEKKKLEKVTNTLSSLKF
binding [3]: binds weakly | binding [4]: binds weakly

B5: Enp1 (untagged), P38333 1-483 (protein)
chain: MARASSTKARKQRHDPLLKDLDAAQGTLKKINKKKLAQNDAANHDAANEEDGYIDSKASRKILQLAKEQQDEIEGEELAESERNKQFEARFTTMSYDDEDEDEDEDEEAFGEDISDFEPEGDYKEEEEIVEIDEEDAAMFEQYFKKSDDFNSLSGSYNLADKIMASIREKESQVEDMQDDEPLANEQNTSRGNISSGLKSGEGVALPEKVIKAYTTVGSILKTWTHGKLPKLFKVIPSLRNWQDVIYVTNPEEWSPHVVYEATKLFVSNLTAKESQKFINLILLERFRDNIETSEDHSLNYHIYRAVKKSLYKPSAFFKGFLFPLVETGCNVREATIAGSVLAKVSVPALHSSAALSYLLRLPFSPPTTVFIKILLDKKYALPYQTVDDCVYYFMRFRILDDGSNGEDATRVLPVIWHKAFLTFAQRYKNDITQDQRDFLLETVRQRGHKDIGPEIRRELLAGASREFVDPQEANDDLMIDVN
binding [5]: no binding | binding [6]: no binding

B6: Dim2/Pno1 (untagged), Q99216 1-274 (protein)
chain: MVAPTALKKATVTPVSGQDGGSSRIIGINNTESIDEDDDDDVLLDDSDNNTAKEEVEGEEGSRKTHESKTVVVDDQGKPRFTSASKTQGNKIKFESRKIMVPPHRMTPLRNSWTKIYPPLVEHLKLQVRMNLKTKSVELRTNPKFTTDPGALQKGADFIKAFTLGFDLDDSIALLRLDDLYIETFEVKDVKTLTGDHLSRAIGRIAGKDGKTKFAIENATRTRIVLADSKIHILGGFTHIRMARESVVSLILGSPPGKVYGNLRTVASRLKERY
binding [7]: no binding

Now from value to binder:

binding [1]: binds
B1: Nob1 (untagged) (protein, UniProt Q08444 1-459)
chain: T2 sequence

binding [2]: no binding
B2: Nob1 (untagged), Q08444 1-459 (protein)
chain: T2 sequence

binding [5]: no binding | binding [6]: no binding
B4: Ltv1 (untagged), P34078 1-463 (protein)
chain: B3 chain
